We go through three sequences from article PMC7307841.

The target of this data set is T1, NOR (NAC-NOR) (UniProt A0A3Q7J5X6).
T1 sequence (looked up, limits assumed): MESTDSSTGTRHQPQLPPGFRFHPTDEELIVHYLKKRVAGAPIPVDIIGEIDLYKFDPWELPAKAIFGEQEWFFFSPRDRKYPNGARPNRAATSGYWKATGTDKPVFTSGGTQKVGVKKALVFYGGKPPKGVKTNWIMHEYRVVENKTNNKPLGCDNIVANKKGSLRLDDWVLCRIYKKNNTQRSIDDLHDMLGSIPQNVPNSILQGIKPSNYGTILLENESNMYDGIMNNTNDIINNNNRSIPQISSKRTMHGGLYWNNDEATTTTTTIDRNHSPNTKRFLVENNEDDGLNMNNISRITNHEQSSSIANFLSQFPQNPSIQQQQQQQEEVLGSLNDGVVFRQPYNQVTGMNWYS
The data set can be described thus: EMSA. The conditions noted are these: EMSA on native polyacrylamide gel as in Han et al. 2016 and Tan et al. 2018; pH and temperature not stated; recombinant protein; protein details: N-terminal …; label: biotin 3' end.

The exact form of at least one protein or probe is not confirmed. At least one verdict was read from the data and is not stated in words by the source. Tags and fusion partners may be left off the protein sequences shown.

For the sequence “AATAAATTCTTTTTGACAGGGTGGCGTAAAAATAATTTTATTTTAAAATA (double strand) [SlACS2 wild probe]”, the binding result is on record as “binds”. Under “TACGTTTAGGATAGGACTTCATTACGTGTCAAGGACAAAAATAAACCTAT (double strand) [SlGgpps2 wild probe]” stands “binds”; under “TATCAATAACAGATAGTAATTTTACGTAATGATATTGAACGATGTATATA (double strand) [SlPL wild probe]”, “binds”.
